Test results published in the supplement of paper PMC10849652.
The list shows a part of the results.

Sequences of proteins named here, by UniProt entry; tags and fusion partners are left off. A change or cut given only in a name is not applied to a line headed by its entry.
UniProt O43633: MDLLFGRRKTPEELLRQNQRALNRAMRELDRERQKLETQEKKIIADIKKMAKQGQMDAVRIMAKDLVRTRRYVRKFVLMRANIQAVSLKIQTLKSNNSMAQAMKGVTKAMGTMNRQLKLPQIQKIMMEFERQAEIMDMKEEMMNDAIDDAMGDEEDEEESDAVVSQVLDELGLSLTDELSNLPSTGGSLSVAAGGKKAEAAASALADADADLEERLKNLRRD
UniProt P51797: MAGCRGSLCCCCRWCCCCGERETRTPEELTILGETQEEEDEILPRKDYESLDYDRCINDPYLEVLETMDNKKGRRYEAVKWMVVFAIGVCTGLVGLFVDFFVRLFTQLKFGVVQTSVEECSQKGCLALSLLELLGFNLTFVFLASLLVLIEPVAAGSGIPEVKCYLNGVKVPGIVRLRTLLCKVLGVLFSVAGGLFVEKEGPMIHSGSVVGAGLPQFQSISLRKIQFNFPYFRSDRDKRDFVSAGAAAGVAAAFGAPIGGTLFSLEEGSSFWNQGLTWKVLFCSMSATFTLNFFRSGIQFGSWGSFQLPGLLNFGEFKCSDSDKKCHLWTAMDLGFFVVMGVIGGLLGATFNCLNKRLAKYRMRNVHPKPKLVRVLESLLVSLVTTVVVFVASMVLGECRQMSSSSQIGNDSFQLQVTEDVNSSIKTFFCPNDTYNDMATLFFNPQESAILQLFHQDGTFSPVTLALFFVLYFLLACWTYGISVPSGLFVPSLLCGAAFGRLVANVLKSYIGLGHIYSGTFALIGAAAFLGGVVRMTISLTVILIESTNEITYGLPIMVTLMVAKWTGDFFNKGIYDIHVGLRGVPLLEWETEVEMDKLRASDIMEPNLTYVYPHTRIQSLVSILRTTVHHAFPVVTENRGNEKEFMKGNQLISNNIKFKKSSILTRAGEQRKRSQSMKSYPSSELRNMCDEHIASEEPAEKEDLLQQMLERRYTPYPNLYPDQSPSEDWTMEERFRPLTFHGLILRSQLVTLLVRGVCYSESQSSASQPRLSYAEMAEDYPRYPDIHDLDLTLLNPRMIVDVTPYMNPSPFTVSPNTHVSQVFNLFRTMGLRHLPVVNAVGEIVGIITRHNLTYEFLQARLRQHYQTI
UniProt P51798: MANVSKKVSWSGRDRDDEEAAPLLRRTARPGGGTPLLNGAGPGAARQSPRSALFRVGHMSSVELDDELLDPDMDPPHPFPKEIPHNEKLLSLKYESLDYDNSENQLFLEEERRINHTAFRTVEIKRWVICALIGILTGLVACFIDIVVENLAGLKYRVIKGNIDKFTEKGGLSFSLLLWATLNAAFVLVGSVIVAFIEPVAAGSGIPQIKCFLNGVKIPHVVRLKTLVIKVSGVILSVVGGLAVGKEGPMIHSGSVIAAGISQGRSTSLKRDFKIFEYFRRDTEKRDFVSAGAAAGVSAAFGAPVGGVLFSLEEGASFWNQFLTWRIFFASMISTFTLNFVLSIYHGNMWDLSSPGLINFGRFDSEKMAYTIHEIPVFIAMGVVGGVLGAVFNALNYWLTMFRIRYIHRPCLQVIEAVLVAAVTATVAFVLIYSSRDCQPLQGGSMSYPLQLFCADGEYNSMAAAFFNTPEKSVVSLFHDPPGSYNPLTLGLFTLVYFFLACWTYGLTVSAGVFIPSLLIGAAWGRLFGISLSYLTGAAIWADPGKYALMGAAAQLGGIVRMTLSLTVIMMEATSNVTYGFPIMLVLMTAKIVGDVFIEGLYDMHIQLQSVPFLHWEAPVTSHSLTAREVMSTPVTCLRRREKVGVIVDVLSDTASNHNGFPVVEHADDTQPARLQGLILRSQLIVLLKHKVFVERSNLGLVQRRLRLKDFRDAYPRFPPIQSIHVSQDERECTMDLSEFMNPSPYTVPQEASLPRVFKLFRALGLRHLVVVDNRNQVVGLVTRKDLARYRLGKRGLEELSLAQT
UniProt Q9NRG0: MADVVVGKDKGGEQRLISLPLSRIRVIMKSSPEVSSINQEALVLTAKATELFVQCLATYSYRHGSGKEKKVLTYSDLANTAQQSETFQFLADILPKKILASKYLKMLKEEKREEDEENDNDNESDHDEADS
UniProt Q86WJ1: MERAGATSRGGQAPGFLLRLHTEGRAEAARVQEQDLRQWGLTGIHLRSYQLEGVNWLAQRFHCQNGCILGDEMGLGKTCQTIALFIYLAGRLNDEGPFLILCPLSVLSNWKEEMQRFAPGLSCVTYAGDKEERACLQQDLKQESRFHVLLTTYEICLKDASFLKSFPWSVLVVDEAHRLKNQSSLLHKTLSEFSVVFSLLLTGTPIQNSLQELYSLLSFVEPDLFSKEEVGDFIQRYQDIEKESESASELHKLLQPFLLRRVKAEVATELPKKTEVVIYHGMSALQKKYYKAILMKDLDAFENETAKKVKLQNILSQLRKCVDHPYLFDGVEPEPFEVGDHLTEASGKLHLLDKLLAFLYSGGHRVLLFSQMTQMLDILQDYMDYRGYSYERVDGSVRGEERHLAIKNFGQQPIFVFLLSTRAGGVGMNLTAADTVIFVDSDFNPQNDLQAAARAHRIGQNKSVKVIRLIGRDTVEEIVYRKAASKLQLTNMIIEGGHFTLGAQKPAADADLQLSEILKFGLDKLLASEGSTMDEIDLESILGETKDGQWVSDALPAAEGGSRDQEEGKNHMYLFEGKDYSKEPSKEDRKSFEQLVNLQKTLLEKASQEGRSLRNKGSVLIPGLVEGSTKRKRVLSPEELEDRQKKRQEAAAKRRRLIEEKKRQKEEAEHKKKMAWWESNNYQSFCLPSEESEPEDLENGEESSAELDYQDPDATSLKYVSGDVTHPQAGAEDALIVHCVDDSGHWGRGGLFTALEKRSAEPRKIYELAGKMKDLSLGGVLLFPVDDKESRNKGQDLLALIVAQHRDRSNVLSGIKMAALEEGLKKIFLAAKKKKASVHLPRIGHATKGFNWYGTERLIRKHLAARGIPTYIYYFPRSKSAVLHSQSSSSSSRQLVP
UniProt Q8N0X4: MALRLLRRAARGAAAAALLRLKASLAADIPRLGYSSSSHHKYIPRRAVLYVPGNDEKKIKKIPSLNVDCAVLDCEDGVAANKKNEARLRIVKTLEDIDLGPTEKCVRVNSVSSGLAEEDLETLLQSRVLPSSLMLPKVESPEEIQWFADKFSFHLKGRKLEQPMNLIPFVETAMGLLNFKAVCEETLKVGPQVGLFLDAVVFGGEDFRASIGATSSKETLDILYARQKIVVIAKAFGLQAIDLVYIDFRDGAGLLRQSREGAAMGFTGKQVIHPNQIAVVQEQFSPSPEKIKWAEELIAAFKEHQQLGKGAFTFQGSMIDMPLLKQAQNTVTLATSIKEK
UniProt Q7LBR1: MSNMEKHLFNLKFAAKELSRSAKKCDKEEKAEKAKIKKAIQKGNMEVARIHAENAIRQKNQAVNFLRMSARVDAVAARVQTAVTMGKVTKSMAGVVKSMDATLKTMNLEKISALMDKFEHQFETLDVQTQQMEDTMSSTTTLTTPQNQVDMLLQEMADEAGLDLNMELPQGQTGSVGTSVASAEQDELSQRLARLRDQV
UniProt O14578, whole entry, looked up: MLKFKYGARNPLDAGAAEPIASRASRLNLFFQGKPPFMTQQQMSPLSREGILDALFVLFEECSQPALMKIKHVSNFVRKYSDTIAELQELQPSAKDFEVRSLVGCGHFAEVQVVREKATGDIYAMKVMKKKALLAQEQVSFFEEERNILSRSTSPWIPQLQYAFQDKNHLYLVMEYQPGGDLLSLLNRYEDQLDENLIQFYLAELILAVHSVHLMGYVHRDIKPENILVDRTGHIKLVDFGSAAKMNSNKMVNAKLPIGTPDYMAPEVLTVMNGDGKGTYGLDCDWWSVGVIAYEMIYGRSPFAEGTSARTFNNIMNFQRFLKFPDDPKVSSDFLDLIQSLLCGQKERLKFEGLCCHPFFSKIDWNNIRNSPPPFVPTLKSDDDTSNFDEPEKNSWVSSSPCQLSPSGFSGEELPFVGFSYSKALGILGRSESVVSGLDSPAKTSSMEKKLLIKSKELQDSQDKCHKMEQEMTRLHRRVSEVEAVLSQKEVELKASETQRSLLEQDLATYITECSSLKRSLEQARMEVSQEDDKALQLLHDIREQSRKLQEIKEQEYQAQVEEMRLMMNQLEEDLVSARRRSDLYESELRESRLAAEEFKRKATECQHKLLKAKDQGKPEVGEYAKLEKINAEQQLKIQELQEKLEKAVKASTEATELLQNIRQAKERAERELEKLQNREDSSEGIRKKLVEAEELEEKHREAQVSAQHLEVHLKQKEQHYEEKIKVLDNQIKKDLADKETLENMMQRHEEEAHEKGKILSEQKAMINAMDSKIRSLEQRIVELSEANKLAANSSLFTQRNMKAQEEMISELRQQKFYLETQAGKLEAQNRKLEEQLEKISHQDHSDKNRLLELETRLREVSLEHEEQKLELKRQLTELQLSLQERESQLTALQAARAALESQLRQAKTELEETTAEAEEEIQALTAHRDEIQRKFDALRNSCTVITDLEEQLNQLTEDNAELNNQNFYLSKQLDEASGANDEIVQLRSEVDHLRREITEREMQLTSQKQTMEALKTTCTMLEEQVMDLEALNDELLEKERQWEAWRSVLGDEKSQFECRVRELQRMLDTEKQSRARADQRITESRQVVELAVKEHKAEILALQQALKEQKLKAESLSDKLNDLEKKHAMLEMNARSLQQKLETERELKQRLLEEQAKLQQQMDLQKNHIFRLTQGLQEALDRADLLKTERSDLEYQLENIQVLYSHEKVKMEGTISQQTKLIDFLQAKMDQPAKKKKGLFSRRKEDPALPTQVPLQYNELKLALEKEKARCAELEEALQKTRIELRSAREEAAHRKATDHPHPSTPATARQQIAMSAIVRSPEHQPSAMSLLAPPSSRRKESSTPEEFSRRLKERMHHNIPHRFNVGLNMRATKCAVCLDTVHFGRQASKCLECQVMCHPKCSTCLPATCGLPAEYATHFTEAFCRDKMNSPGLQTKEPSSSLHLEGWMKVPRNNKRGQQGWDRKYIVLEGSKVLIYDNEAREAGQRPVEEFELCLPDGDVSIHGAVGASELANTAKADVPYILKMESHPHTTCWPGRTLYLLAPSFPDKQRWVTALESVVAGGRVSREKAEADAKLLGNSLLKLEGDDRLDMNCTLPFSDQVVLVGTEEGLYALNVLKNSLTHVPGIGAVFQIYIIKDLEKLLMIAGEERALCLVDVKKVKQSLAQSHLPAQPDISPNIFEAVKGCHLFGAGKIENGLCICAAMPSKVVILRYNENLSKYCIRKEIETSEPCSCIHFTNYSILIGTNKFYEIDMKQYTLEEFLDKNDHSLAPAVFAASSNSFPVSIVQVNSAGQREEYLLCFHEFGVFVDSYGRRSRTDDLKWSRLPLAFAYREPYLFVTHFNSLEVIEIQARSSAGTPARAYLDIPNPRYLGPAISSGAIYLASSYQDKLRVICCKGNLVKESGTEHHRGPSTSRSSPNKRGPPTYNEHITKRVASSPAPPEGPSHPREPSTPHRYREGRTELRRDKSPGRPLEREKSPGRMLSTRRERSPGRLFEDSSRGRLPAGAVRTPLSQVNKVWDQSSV
UniProt Q13111, whole entry, looked up: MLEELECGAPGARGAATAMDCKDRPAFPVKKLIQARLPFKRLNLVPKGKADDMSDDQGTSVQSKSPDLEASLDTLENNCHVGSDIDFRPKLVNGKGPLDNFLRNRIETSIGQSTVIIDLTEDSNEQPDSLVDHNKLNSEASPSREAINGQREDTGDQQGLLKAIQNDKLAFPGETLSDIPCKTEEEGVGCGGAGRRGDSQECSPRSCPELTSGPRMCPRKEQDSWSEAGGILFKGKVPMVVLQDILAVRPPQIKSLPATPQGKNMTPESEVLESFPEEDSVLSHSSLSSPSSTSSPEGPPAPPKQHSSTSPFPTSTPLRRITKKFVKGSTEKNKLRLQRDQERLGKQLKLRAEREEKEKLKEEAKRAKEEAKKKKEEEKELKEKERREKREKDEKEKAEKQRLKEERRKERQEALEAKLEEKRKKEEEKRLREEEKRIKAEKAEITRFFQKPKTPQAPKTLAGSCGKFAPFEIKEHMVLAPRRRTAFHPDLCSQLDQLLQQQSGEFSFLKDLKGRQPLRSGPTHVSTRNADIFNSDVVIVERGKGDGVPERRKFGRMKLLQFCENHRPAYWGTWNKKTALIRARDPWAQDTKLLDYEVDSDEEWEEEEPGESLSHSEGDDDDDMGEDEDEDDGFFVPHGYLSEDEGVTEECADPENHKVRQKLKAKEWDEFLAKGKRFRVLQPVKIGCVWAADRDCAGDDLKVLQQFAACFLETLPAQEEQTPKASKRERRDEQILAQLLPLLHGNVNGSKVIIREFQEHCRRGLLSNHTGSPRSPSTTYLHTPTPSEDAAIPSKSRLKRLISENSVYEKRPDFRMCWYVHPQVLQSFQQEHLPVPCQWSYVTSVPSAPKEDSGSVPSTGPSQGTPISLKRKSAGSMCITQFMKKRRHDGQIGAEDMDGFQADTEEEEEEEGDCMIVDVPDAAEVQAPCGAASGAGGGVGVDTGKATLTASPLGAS
UniProt Q9UBR5: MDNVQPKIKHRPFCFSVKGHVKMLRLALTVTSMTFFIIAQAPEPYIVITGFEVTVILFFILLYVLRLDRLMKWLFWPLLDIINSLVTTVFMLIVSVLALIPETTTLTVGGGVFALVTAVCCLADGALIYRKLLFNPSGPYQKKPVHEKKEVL

What was measured:
Experiment in all cases: log2 fold change, soluble protein after heating vs DMSO (PISA); higher = thermal stabilisation; K562 lysate, 10 uM; active = over 0.2 and 3.5 SD of the protein, either way, in both replicates (recomputed)
[1] = compound: NCC(=O)Nc1ccc(-n2nc(C(F)(F)F)cc2-c2ccc3c(ccc4ccccc43)c2)cc1
How it was run: (§1)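 Following dounce homogenisation of K562 pellets in PBS pH 7.4 with 1 mM MgCl2, crude extract at 1 mg/mL protein was incubated for 30 min with 10 μM compound. Aliquots were then heated for 3 min over 48°C-58°C and pooled, NP-40 was added to 0.5% at 4°C, and soluble protein was recovered as the supernatant at 21,000xg for 90 min. Channel-sum-equalised TMTpro 16plex LC-MS/MS quantified this protein. Each value, from duplicates, is a log-two fold change in thermal stability relative to solvent controls.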

[2] = compound: O=C(CCCCCCC(=O)Nc1ccccc1)NO [vorinostat]
How it was run: as §1

[3] = compound: O=C(O)c1ccc2c(c1)nc(Nc1cccc(Cl)c1)c1ccncc12 [silmitasertib]
How it was run: as §1

[4] = compound: O=C1NC(=O)C(c2cnc3ccccn23)=C1c1cn2c3c(cc(F)cc13)CN(C(=O)N1CCCCC1)CC2
How it was run: as §1

[5] = compound: c1cn2cc(-c3ccc4cn[nH]c4c3)nc(Nc3ccc(N4CCOCC4)cc3)c2n1 [entospletinib]
How it was run: as §1

Measured: log2 fold change

CHFR (UniProt Q96EP1)
inactive: [1] -0.219 | [2] -0.143 | [3] 0.057 | [4] 0.004 | [5] -0.083

CHMP2A (UniProt O43633)
inactive: [1] 0.004 | [2] 0.116 | [3] 0.016 | [4] 0.013 | [5] 0.025

CLGN (UniProt O14967)
inactive: [1] 0.131 | [2] 0.124 | [3] -0.047 | [4] -0.003 | [5] -0.005

CIAPIN1 (UniProt Q6FI81)
inactive: [1] 0.005 | [2] 0.018 | [3] -0.022 | [4] 0.003 | [5] 0.01

CLCN6 isoform 5 (UniProt P51797)
inactive: [1] 0.178 | [2] 0.07 | [3] -0.002 | [4] 0.009 | [5] 0.034

CMC2 (UniProt Q9NRP2)
inactive: [1] -0.051 | [2] -0.013 | [3] -0.048 | [4] -0.068 | [5] -0.045

CLEC16A (UniProt Q2KHT3)
inactive: [1] 0.015 | [2] 0.072 | [3] -0.003 | [4] 0.012 | [5] 0.002

CMPK1 (UniProt P30085)
inactive: [1] -0.04 | [2] 0.008 | [3] -0.071 | [4] 0.005 | [5] 0.022

CISD1 (UniProt Q9NZ45)
inactive: [1] 0 | [2] 0.144 | [3] -0.04 | [4] 0.024 | [5] -0.028

CLCN3 (UniProt P51790)
inactive: [1] -0.165 | [2] -0.171 | [3] 0.118 | [4] -0.245 | [5] 0.025

CLINT1 isoform 3 (UniProt Q14677)
inactive: [1] 0 | [2] 0.16 | [3] -0.098 | [4] -0.071 | [5] 0.007

CISD3 (UniProt P0C7P0)
inactive: [1] 0.055 | [2] 0.094 | [3] -0.017 | [4] -0.057 | [5] -0.029

CLCN7 (UniProt P51798)
inactive: [1] -0.014 | [2] 0.049 | [3] -0.002 | [4] -0.032 | [5] 0.012

CHRAC1 (UniProt Q9NRG0)
inactive: [1] 0.017 | [2] -0.06 | [3] -0.144 | [4] -0.014 | [5] 0.012

CIZ1 (UniProt Q9ULV3)
inactive: [1] 0.02 | [2] 0.077 | [3] -0.071 | [4] 0.007 | [5] -0.032

CHMP4A isoform 2 (UniProt Q9BY43)
inactive: [1] 0.011 | [2] 0.1 | [3] -0.027 | [4] -0.051 | [5] 0.019

CLPB isoform 2 (UniProt Q9H078)
active: [2] -0.446
inactive: [1] 0.075 | [3] 0.062 | [4] -0.028 | [5] 0.016

CHCHD10 (UniProt Q8WYQ3)
inactive: [1] 0.029 | [2] 0.034 | [3] 0.036 | [5] -0.122

CHD1L (UniProt Q86WJ1)
active: [2] -0.277
inactive: [1] 0.01 | [3] 0.015 | [4] 0.164 | [5] 0.046

CLINT1 (UniProt Q14677)
inactive: [1] -0.147 | [4] -0.127 | [5] 0.077

CLN5 (UniProt O75503)
inactive: [1] 0.056 | [2] 0.062 | [3] -0.027 | [5] 0.226

Two entries picked at random from the list so far:
CLN5 (UniProt O75503)
inactive: [1] 0.056 | [2] 0.062 | [3] -0.027 | [5] 0.226

CHD1L (UniProt Q86WJ1)
active: [2] -0.277
inactive: [1] 0.01 | [3] 0.015 | [4] 0.164 | [5] 0.046

(cont.)

CHD2 (UniProt O14647)
inactive: [1] 0.114 | [4] 0.039 | [5] -0.02

Reprinted from the entries so far (three entries):
CLPB isoform 2 (UniProt Q9H078)
active: [2] -0.446
inactive: [1] 0.075 | [3] 0.062 | [4] -0.028 | [5] 0.016

CHCHD10 (UniProt Q8WYQ3)
inactive: [1] 0.029 | [2] 0.034 | [3] 0.036 | [5] -0.122

CHD1L (UniProt Q86WJ1)
active: [2] -0.277
inactive: [1] 0.01 | [3] 0.015 | [4] 0.164 | [5] 0.046

More records follow:

CHD5 (UniProt Q8TDI0)
inactive: [1] 0.059 | [3] 0.007 | [4] 0.042 | [5] 0.025
active: [2] -0.261

CHCHD4 isoform 2 (UniProt Q8N4Q1)
inactive: [1] 0.06 | [2] 0.207 | [3] -0.145 | [4] -0.027 | [5] 0.01

CHTOP isoform 3 (UniProt Q9Y3Y2)
inactive: [1] 0.022 | [2] -0.211 | [3] -0.049 | [4] 0.056 | [5] 0.019

CHCHD7 isoform 4 (UniProt Q9BUK0)
inactive: [1] -0.031 | [4] -0.066 | [5] 0.008

CHD7 (UniProt Q9P2D1)
inactive: [1] -0.071 | [2] -0.187 | [3] 0.053 | [4] 0.086 | [5] -0.026

CLYBL (UniProt Q8N0X4)
inactive: [1] 0.023 | [4] 0.15 | [5] -0.044

CHMP1A (UniProt Q9HD42)
inactive: [1] -0.013 | [2] 0.116 | [3] -0.02 | [4] -0.052 | [5] 0.005

CHD6 (UniProt Q8TD26)
inactive: [1] 0.042 | [4] 0.064 | [5] -0.182

CLASP2 (UniProt O75122)
inactive: [1] 0.052 | [4] 0.194 | [5] -0.073

CHIC2 (UniProt Q9UKJ5)
inactive: [1] -0.014 | [2] -0.04 | [3] 0.094 | [5] -0.066

CHMP1B (UniProt Q7LBR1)
inactive: [1] -0.068 | [2] 0.127 | [3] 0.027 | [4] -0.024 | [5] -0.001

CLCC1 (UniProt Q96S66)
inactive: [1] 0.033 | [2] 0.08 | [3] 0 | [4] 0.014 | [5] 0.003

CIAO2A (UniProt Q9H5X1)
active: [2] 0.368
inactive: [1] 0.021 | [3] -0.016 | [4] -0.037 | [5] 0.009

CHCHD2 (UniProt Q9Y6H1)
active: [2] -0.301
inactive: [1] -0.022 | [3] 0.044 | [4] -0.017 | [5] -0.06

CLUH (UniProt O75153)
active: [2] 0.404
inactive: [1] -0.011 | [3] 0.071 | [4] 0.033 | [5] 0.01

CIT isoform 4 (UniProt O14578)
inactive: [1] 0.022 | [2] -0.195 | [3] -0.015 | [4] 0.015 | [5] -0.029

CLIP1, A0A3B3ITA2
inactive: [1] 0.136 | [4] 0.068

CHAMP1 (UniProt Q96JM3)
inactive: [1] -0.051 | [2] 0.017 | [3] -0.024 | [4] -0.001 | [5] -0.002

CHPF2 (UniProt Q9P2E5)
inactive: [1] -0.031 | [2] -0.076 | [3] 0.361 | [4] -0.009 | [5] -0.019

CIAO2B (UniProt Q9Y3D0)
inactive: [1] 0.008 | [2] -0.161 | [3] -0.007 | [4] 0.018 | [5] 0

CHAF1A (UniProt Q13111)
inactive: [1] 0.004 | [3] -0.004 | [4] 0.004 | [5] -0.082
active: [2] -0.402

CLIP1 isoform 1 (UniProt P30622)
inactive: [1] -0.008 | [2] 0.092 | [3] -0.01 | [4] -0.01 | [5] -0.009

CHP1 (UniProt Q99653)
inactive: [1] 0.031 | [2] 0.076 | [3] -0.013 | [4] 0.013 | [5] 0.01

CHID1 (UniProt Q9BWS9)
inactive: [1] 0.008 | [2] 0.067 | [3] -0.018 | [4] 0.027 | [5] 0.007

CHMP2B (UniProt Q9UQN3)
inactive: [1] -0.045 | [2] 0.073 | [3] 0.038 | [4] -0.03 | [5] 0.008

CLP1 (UniProt Q92989)
inactive: [1] 0.011 | [3] 0.029 | [4] -0.027 | [5] 0.008
active: [2] -0.307

CMBL (UniProt Q96DG6)
inactive: [1] -0.065 | [2] 0.09 | [3] 0.042 | [4] 0.071 | [5] 0.037

CKLF (UniProt Q9UBR5)
inactive: [4] 0.044

CLSTN3 isoform 2 (UniProt Q9BQT9)
inactive: [2] 0.164 | [3] 0 | [4] -0.082

CLEC11A (UniProt Q9Y240)
inactive: [2] 0.137 | [3] -0.098 | [4] -0.101 | [5] -0.101

CLK2 (UniProt P49760)
inactive: [4] 0.017

CNBP (UniProt P62633)
inactive: [2] -0.539 | [3] 0.161

CLN8 (UniProt Q9UBY8)
inactive: [2] -0.139 | [3] 0.045 | [4] -0.013 | [5] -0.055

CHTF18 (UniProt Q8WVB6)
inactive: [2] -0.334 | [3] 0.258 | [4] 0.069 | [5] 0.072

CLEC16A isoform 2 (UniProt Q2KHT3)
inactive: [2] 0.088 | [3] 0.098 | [4] 0.036

CLN3 (UniProt Q13286)
inactive: [2] 0.046 | [3] -0.038

CHSY1 (UniProt Q86X52)
inactive: [2] 0.238 | [3] -0.207
